From the supplement of paper PMC5770031 come the findings set out here.

SMILES strings stand for the structures. Several values for one entry are separate records, joined by “and”; a condition that tells them apart may be missing. Identical values can stand only once. Some of the results follow. This data set is noisy: repeats of one test often differ as much as different tests do.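 Flies heterozygous for the ATM8 allele over a balancer chromosome carrying normal ATM were mated with each other on treated food. Parents laid eggs for 5–6 days and the young then developed for about 12 days, so both parents and larvae ate the compound. The read-out is the share of all emerged adults that carry two ATM8 copies, compared with 2% DMSO control vials. The paper called compounds neutral at 10–20% such offspring, harmful below 10%, and helpful above 20%.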

For the assay, the system named is Drosophila melanogaster ATM8 (temperature-sensitive ATM allele). As to the kind of experiment: fraction of eclosed F1 progeny that are homozygous ATM8 (rescue of developmental lethality); higher = more rescue of ATM8 developmental lethality; extreme values may be limits of the assay. As to conditions: compound concentration applied to food 0.2 mM; 21 °C.
Consider `C[C@]12CCC(=O)C=C1CCc1ccc(O)cc12`, for which the “fraction of eclosed F1 progeny that are homozygous ATM8” value (shortened to “fraction”) is 0.184.

Turning to `CCCCCN(C)CCC(O)(P(=O)(O)O)P(=O)(O)O`, the “fraction” value is 0.14.

On to `Cc1cccc(C)c1NC1=NCCCS1`, for which the “fraction” value was 0.111.

Regarding `C1N2CN3CN1CN(C2)C3`, the “fraction” value stood at 0.093.

Take `C[Se]CC[C@H](N)C(=O)O`: the “fraction” value was determined as 0.0952.

As for `Cc1ncc([N+](=O)[O-])n1C`, the “fraction” value came out at 0.208.

Take `c1ccc2c(c1)CCCC2C1=NCCN1` (stereo not given): the “fraction” value was found to be 0.0278.

As to `C[C@@H](O)[C@H]1C(=O)N2C(C(=O)O)=C(SCCNC=N)C[C@H]12`, the “fraction” value amounted to 0.258.

For `O=c1cc(-c2ccc(O)cc2)oc2cc(O[C@@H]3O[C@H](CO)[C@@H](O)[C@H](O)[C@H]3O[C@@H]3OC[C@](O)(CO)[C@H]3O)cc(O)c12`, the “fraction” value was 0.171.

Take `C[C@](N)(Cc1ccc(O)cc1)C(=O)O` [alpha-METHYL-L-TYROSINE]: the “fraction” value came to 0.115.

Consider `Cc1cccc(C)c1NC(=O)c1ccccc1C(=O)O`, for which the “fraction” value is 0.28.

As to `O=C1CC(c2ccccc2)Oc2ccccc21` (stereo not given), the “fraction” value amounted to 0.0385.

On to `CS(=O)(=O)c1ccc([C@@H](O)[C@@H](CF)NC(=O)C(Cl)Cl)cc1`, for which the “fraction” value came to 0.146.

For `C=C(CC)C(=O)c1ccc(OCC(=O)O)c(Cl)c1Cl`, the “fraction” value stood at 0.

As to `CC(C)c1nc(N(C)S(C)(=O)=O)nc(-c2ccc(F)cc2)c1/C=C/[C@@H](O)C[C@@H](O)CC(=O)O`, the “fraction” value is 0.288.

On to `C[N+](C)(C)CCOP(=O)(O)OP(=O)([O-])OC[C@H]1O[C@@H](n2ccc(N)nc2=O)[C@H](O)[C@@H]1O`, for which the “fraction” value came out at 0.

Turning to `Nc1ccc(S(=O)(=O)NC(=O)c2ccccc2)cc1`, the “fraction” value came to 0.152.

On to `CC[C@H](CC[C@@H](C)[C@H]1CC[C@H]2[C@@H]3CC=C4C[C@@H](OC(C)=O)CC[C@]4(C)[C@H]3CC[C@]12C)C(C)C`, for which the “fraction” value is 0.16.

Consider `C[C@]12CC[C@@H](O)C[C@H]1CCc1ccccc12` [3alpha-HYDROXY-4,4-BISNOR-8,11,13-PODOCARPATRIENE], for which the “fraction” value stood at 0.0645.

As for `CCOC(=O)[C@H](CCc1ccccc1)N[C@@H](C)C(=O)N1[C@H](C(=O)O)C[C@H]2CCCC[C@@H]21`, the “fraction” value was determined as 0.234.

Regarding `O=C(O[C@@H]1Cc2c(O)cc(O)cc2O[C@@H]1c1cc(O)c(O)c(O)c1)c1cc(O)c(O)c(O)c1`, the “fraction” value turned out to be 0.1.

As to `CC[C@H]1CN2CCc3cc(OC)c(OC)cc3[C@@H]2C[C@@H]1C[C@H]1NCCc2cc(OC)c(OC)cc21`, the “fraction” value was found to be 0.118.

`CC(C(=O)O)[C@H]1CCC2C3CC=C4C[C@@H](O)CC[C@]4(C)C3CC[C@@]21C` (stereo partly drawn) [3beta-HYDROXY-23,24-BISNORCHOL-5-ENIC ACID]: the “fraction” value was 0.161.

`COc1c(Cl)c(C)c(C(=O)Oc2cc(C)c(C(=O)O)c(O)c2)c(O)c1Cl`: the “fraction” value amounted to 0.146.

Regarding `CCN(CC)CCNC(=O)c1ccc(NC(C)=O)cc1`, the “fraction” value is 0.273.

With `CN1C(=O)CC(C)(c2ccccc2)C1=O` (stereo not given), the “fraction” value came out at 0.05.

For `N[C@H](Cc1ccccc1)C(=O)O`, the “fraction” value was 0.162.

Regarding `O=C1C=C2CC3(O)COc4cc(O)ccc4C3=C2C=C1O` (stereo not given), the “fraction” value amounted to 0.137.

As to `O=c1c(-c2ccc(O)cc2)coc2cc(O)cc(O)c12`, the “fraction” value is 0.265.

In the case of `CCCc1nc(C)c2c(O)nc(-c3cc(S(=O)(=O)N4CCN(CC)CC4)ccc3OCC)nn12`, the “fraction” value stood at 0.242.

Take `O=C1C=CC(=C(c2ccc(O)cc2)c2ccc(O)cc2)C=C1`: the “fraction” value turned out to be 0.114.

Turning to `CNC(=C[N+](=O)[O-])NCCSCc1ccc(CN(C)C)o1`, the “fraction” value was 0.114.

As for `COc1cc([C@@H]2c3cc4c(cc3[C@H](O)[C@H]3COC(=O)[C@H]23)OCO4)cc(OC)c1OC`, the “fraction” value was 0.253.

With `COC(=O)[C@H]1[C@H]2C[C@@H]3c4[nH]c5cc(OC)ccc5c4CCN3C[C@H]2C[C@@H](OC(=O)c2cc(OC)c(OC)c(OC)c2)[C@@H]1OC`, the “fraction” value is 0.267.

As for `COc1cc2c(cc1OC)-c1cc3ccc(OC)c(OC)c3c[n+]1CC2`, the “fraction” value is 0.125 and 0.115.

Consider `Cc1nc(C)c(Cl)c(O)c1Cl`, for which the “fraction” value worked out at 0.298.

With `Cc1ccc(O)cc1.Cc1cccc(O)c1.Cc1ccccc1O`, the “fraction” value stood at 0.0256.

As for `O=C(O)P(=O)(O)O`, the “fraction” value came out at 0.14.

As to `CCNC1(c2cccs2)CCCCC1=O` (stereo not given), the “fraction” value came to 0.14.

In the case of `CCCCCCCCCCCCCCCC[N+](C)(C)CCN(Cc1ccc(OC)cc1)c1ncccn1`, the “fraction” value stood at 0.0357.

Turning to `C#C[C@]1(O)CC[C@H]2[C@@H]3CCc4cc(OC)ccc4[C@H]3CC[C@@]21C`, the “fraction” value stood at 0.188.

With `CC(C)NCC(O)c1ccc(NS(C)(=O)=O)cc1` (stereo not given), the “fraction” value was found to be 0.15.

With `CC(=O)N1CCN(c2ccc(OCC3COC(Cn4ccnc4)(c4ccc(Cl)cc4Cl)O3)cc2)CC1` (stereo not given), the “fraction” value was 0.125.

Regarding `CCOc1ccccc1C(N)=O`, the “fraction” value was 0.15.

For `COC(=O)C[C@H]1C(C)(C)[C@@H](OC(C)=O)[C@@H]2CC3=C4CC(=O)O[C@@H](c5ccoc5)[C@]4(C)CC[C@@H]3[C@@]1(C)C2=O`, the “fraction” value stood at 0.182.

In the case of `NS(=O)(=O)c1ccc(C(=O)O)cc1`, the “fraction” value is 0.164.

Turning to `C[C@@H]1CC[C@H]2[C@@H](C)C(=O)O[C@@H]3O[C@@]4(C)CC[C@@H]1[C@]32OO4`, the “fraction” value came out at 0.226.

`Cc1n[nH]c(=S)[nH]c1=O`: the “fraction” value was 0.314.

Regarding `CC[C@H]1[C@@H]2C[C@H]3[C@@H]4N(C)c5ccccc5[C@]45C[C@@H]([C@@H]2[C@H]5O)N3[C@@H]1O`, the “fraction” value was 0.1.

Consider `CC(=O)O[C@@H]1C[C@@]2(C)C(CC[C@@H]2C(C)=O)C2CCC3=CC(=O)CC[C@]3(C)C21` (stereo not given in full), for which the “fraction” value was determined as 0.196.
